Measured values from US20110104301A1, “METHODS OF REDUCING PAIN AND INFLAMMATION” (Georgetown University, A Congressionally Chartered …, priority 2008, published 2011).
At least one compound was matched to its structure with a doubt left. No end group written: not given here.

By UniProt entry, the sequences of proteins in these tests, tags left out.
UniProt Q704Y3, whole entry: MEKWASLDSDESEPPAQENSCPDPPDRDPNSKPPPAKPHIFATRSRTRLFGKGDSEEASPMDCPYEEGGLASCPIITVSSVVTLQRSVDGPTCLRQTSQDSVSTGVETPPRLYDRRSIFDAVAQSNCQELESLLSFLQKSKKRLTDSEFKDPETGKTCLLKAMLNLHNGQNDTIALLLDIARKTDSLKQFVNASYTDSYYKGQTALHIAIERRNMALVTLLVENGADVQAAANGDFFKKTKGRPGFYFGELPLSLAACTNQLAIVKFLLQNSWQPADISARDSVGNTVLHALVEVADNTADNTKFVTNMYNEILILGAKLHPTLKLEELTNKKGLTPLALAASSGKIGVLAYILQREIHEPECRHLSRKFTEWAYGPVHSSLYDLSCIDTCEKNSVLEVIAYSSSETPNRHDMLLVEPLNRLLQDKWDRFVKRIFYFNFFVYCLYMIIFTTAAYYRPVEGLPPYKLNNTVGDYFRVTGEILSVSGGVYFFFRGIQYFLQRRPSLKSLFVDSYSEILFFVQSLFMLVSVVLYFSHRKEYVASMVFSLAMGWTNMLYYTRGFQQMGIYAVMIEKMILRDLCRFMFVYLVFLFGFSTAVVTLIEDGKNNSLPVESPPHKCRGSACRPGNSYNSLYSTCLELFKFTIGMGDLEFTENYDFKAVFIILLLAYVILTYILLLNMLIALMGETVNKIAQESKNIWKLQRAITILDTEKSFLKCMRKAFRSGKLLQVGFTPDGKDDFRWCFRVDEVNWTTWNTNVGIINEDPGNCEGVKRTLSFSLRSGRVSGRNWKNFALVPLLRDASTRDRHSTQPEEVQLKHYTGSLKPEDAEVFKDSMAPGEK

Molecular target: T1, TRPV1 (Mus musculus, UniProt Q704Y3)
T1 construct: endogenous in cells; host or cells: primary nodose ganglion neurons of adult C57Bl6/J mice
Assay: Patch-clamp of capsaicin-sensitive sensory neurons (nodose ganglia)
Format: cell-based
Conditions: BK 10 μM
Procedure: HEK cell and sensory neuron electrophysiology. HEK 293F cells (Invitrogen) were cultured in DMEM supplemented with 1% non-essential amino acids and 10% fetal calf serum. Cell cultures were maintained at 37° C. with 5% CO2. Cells were transfected with rat TRPV 1 (gift of David Julius), and GFP cDNA using Lipofectamine™ Transfection Reagent (Invitrogen) and used 24-48 h after transfection. Nodose ganglia were obtained from adult mice (C57B16/J and TRPV1-null), cut, digested with collagenase, and cultured in Neurobasal +2% B-27 medium (Invitrogen), 0.1% L-glutamine and 1% penicillin/streptomycin on poly-D lysine-coated glass coverslips at 37° C. in 5% CO2. Neurons were used within 24-36 hr of culture. Whole-cell and single-channel patch clamp recordings were performed using an EPC8 amplifier (HEKA). The current signal was low-pass filtered at 1-3 kHz and sampled at 4 kHz. Currents were further filtered for display purposes. For whole-cell and excised patch recordings the bath solution contained (in mM): 140 NaCl, 4 KCl, 1 MgCl2, 1 EGTA, 10 HEPES, 10 glucose pH 7.3 (290 mOsm). […] The peak amplitudes measured either during the prepulse or the tail current (within 1 ms) were plotted as a function of the test potential and normalized to the maximal current obtained from the following Boltzmann function: […]

Sequence: RPPGFSPFR [BK, bradykinin]
- Effect on capsaicin-evoked currents in sensory neurons (capsaicin 30 nM): enhances
- Effect on responses of sensory neurons to isoflurane (isoflurane 0.9 mM): enhanced the responses
